Laboratory results published in article PMC6485759.
Results are given in words; binding and its absence hold for the method and conditions named. Binding seen in cells or lysates may run through a third protein. A result given as binding can be weak or reduced; the word gives no strength.

Amino acid sequences for entries named in this document (tags omitted). A change or cut given only in a name is not applied to a line headed by its entry.
UniProt Q9TZI9: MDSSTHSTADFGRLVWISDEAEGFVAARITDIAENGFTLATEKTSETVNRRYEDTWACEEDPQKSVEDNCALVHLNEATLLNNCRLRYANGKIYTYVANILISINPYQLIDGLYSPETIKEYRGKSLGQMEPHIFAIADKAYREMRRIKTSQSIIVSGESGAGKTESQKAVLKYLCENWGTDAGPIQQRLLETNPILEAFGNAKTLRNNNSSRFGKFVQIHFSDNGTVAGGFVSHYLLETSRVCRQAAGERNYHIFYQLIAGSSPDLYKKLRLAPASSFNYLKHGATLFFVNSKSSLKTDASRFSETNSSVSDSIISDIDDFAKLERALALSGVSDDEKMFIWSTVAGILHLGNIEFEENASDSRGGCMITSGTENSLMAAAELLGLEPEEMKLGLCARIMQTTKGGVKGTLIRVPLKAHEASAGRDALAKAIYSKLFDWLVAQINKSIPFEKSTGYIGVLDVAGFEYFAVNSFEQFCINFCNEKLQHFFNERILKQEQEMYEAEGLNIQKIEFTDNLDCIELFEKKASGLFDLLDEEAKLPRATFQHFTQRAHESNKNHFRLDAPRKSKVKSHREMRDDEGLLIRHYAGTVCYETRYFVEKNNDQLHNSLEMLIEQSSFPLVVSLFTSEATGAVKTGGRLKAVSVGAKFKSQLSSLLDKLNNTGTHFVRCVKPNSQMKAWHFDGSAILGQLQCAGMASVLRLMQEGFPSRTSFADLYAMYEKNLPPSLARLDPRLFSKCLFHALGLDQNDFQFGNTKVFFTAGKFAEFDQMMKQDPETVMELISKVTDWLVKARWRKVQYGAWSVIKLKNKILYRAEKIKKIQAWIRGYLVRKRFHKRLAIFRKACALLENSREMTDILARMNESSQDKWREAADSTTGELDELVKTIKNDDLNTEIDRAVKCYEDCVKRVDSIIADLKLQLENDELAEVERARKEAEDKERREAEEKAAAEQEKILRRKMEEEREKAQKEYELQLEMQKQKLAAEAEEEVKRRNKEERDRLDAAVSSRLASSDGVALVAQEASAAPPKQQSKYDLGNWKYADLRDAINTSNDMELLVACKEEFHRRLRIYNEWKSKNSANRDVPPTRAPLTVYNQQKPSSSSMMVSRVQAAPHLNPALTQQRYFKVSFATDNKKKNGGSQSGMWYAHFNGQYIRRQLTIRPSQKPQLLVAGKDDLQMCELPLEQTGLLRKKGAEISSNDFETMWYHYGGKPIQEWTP
UniProt Q18488: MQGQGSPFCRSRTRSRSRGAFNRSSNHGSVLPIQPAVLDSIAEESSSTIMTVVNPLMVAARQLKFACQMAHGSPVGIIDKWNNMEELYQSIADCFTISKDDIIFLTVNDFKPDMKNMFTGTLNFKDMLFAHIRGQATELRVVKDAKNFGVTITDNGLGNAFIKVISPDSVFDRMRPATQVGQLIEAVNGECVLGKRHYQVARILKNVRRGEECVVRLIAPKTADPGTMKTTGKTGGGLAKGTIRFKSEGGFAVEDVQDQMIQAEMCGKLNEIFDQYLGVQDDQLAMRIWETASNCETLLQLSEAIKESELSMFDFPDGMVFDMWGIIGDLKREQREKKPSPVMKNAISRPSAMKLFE
UniProt Q20393: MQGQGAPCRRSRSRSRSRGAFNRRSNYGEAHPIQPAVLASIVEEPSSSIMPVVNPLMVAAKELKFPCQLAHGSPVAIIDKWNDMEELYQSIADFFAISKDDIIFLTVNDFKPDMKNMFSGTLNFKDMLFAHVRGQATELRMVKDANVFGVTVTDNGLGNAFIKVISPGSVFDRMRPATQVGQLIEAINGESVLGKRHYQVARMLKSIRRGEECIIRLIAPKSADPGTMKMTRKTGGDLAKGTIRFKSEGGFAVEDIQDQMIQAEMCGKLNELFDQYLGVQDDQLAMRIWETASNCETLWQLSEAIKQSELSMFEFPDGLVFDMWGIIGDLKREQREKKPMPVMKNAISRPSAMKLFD

Target: FLAG::SPE-15 (CBD), cargo-binding domain of wild-type SPE-15/myosin VI (C. elegans) (UniProt Q9TZI9)
Assay: co-IP; purified proteins mixed in 400 μl TBST (50 mM Tris-HCl pH 7.5, 300 mM NaCl, 0.1% Tween 20), 4°C, 2 h; FLAG::SPE-15(CBD) captured on anti-FLAG M2 magnetic beads, 4 h; bound MYC::GIPC shown by anti-MYC western blot; both purified

Row | Substance | binding
1 | MYC::GIPC-1 (from UniProt Q18488) | binds
2 | MYC::GIPC-2 (from UniProt Q20393) | binds
